From the supplement of paper PMC8728848
The other results are listed elsewhere or left out.

Tests used:
Assay in all cases: glycan array binding signal (z-score within array); higher = stronger binding
Details in all cases: glycan notation: IUPAC condensed, linker removed
[1] = molecular target: Neu5Ac(a2-3)Gal(b1-4)[Fuc(a1-3)]GlcNAc
How it was run: (§1)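 Arrays were curated from the Consortium for Functional Glycomics database, 3228 in total, and kept only where the protein sequence was available. Binding is expressed as a within-array Z-score. This score was averaged across arrays of the same protein sequence at different concentrations or buffers and across linkers, and negative values can be read as non-binding.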

[2] = molecular target: Neu5Ac(a2-3)Gal(b1-4)[Fuc(a1-3)]GlcNAc(b1-3)Gal
How it was run: as §1

[3] = molecular target: Neu5Ac(a2-3)Gal(b1-4)[Fuc(a1-3)]GlcNAc(b1-3)Gal(b1-4)GlcNAc
How it was run: as §1

[4] = molecular target: Neu5Ac(a2-3)Gal(b1-4)[Fuc(a1-3)]GlcNAc(b1-3)Gal(b1-4)[Fuc(a1-3)]GlcNAc(b1-3)Gal(b1-4)[Fuc(a1-3)]GlcNAc
How it was run: as §1

[5] = molecular target: Neu5Ac(a2-3)Gal(b1-4)[Fuc(a1-3)]GlcNAc(b1-6)[Gal(b1-3)]GalNAc
How it was run: as §1

[6] = molecular target: Neu5Ac(a2-3)Gal(b1-4)[Fuc(a1-3)]GlcNAc(b1-6)[Neu5Ac(a2-3)Gal(b1-3)]GalNAc
How it was run: as §1

[7] = molecular target: Neu5Ac(a2-3)Gal(b1-4)[Fuc(a1-3)]GlcNAc6S
How it was run: as §1

[8] = molecular target: Neu5Ac(a2-3)Gal6S(b1-4)GlcNAc
How it was run: as §1

[9] = molecular target: Neu5Ac(a2-3)Gal6S(b1-4)[Fuc(a1-3)]GlcNAc
How it was run: as §1

[10] = molecular target: Neu5Ac(a2-3)GalNAc
How it was run: as §1

[11] = molecular target: Neu5Ac(a2-3)GalNAc(b1-4)GlcNAc
How it was run: as §1

[12] = molecular target: Neu5Ac(a2-3)[GalNAc(b1-4)]Gal(b1-4)Glc
How it was run: as §1

[13] = molecular target: Neu5Ac(a2-3)[GalNAc(b1-4)]Gal(b1-4)GlcNAc
How it was run: as §1

[14] = molecular target: Neu5Ac(a2-3)[Neu5Ac(a2-6)]GalNAc
How it was run: as §1

[15] = molecular target: Neu5Ac(a2-6)Gal
How it was run: as §1

[16] = molecular target: Neu5Ac(a2-6)Gal(b1-4)Glc
How it was run: as §1

[17] = molecular target: Neu5Ac(a2-6)Gal(b1-4)GlcNAc
How it was run: as §1

[18] = molecular target: Neu5Ac(a2-6)Gal(b1-4)GlcNAc(b1-2)Man(a1-3)Man(b1-4)GlcNAc(b1-4)GlcNAc
How it was run: as §1

[19] = molecular target: Neu5Ac(a2-6)Gal(b1-4)GlcNAc(b1-2)Man(a1-3)[Gal(b1-4)GlcNAc(b1-2)Man(a1-6)]Man(b1-4)GlcNAc(b1-4)GlcNAc
How it was run: as §1

[20] = molecular target: Neu5Ac(a2-6)Gal(b1-4)GlcNAc(b1-2)Man(a1-3)[GlcNAc(b1-2)Man(a1-6)]Man(b1-4)GlcNAc(b1-4)GlcNAc
How it was run: as §1

[21] = molecular target: Neu5Ac(a2-6)Gal(b1-4)GlcNAc(b1-2)Man(a1-3)[GlcNAc(b1-2)Man(b1-4)GlcNAc(b1-2)Man(a1-6)]Man(b1-4)GlcNAc(b1-4)GlcNAc
How it was run: as §1

[22] = molecular target: Neu5Ac(a2-6)Gal(b1-4)GlcNAc(b1-2)Man(a1-3)[Man(a1-6)]Man(b1-4)GlcNAc(b1-4)GlcNAc
How it was run: as §1

[23] = molecular target: Neu5Ac(a2-6)Gal(b1-4)GlcNAc(b1-2)Man(a1-3)[Neu5Ac(a2-6)Gal(b1-4)GlcNAc(b1-2)Man(a1-6)]Man(b1-4)GlcNAc(b1-4)GlcNAc
How it was run: as §1

[24] = molecular target: Neu5Ac(a2-6)Gal(b1-4)GlcNAc(b1-2)Man(a1-6)Man(b1-4)GlcNAc(b1-4)GlcNAc
How it was run: as §1

[25] = molecular target: Neu5Ac(a2-6)Gal(b1-4)GlcNAc(b1-2)Man(a1-6)[Gal(b1-4)GlcNAc(b1-2)Man(a1-3)]Man(b1-4)GlcNAc(b1-4)GlcNAc
How it was run: as §1

[26] = molecular target: Neu5Ac(a2-6)Gal(b1-4)GlcNAc(b1-2)Man(a1-6)[GlcNAc(b1-2)Man(a1-3)]Man(b1-4)GlcNAc(b1-4)GlcNAc
How it was run: as §1

[27] = molecular target: Neu5Ac(a2-6)Gal(b1-4)GlcNAc(b1-2)Man(a1-6)[Man(a1-3)]Man(b1-4)GlcNAc(b1-4)GlcNAc
How it was run: as §1

[28] = molecular target: Neu5Ac(a2-6)Gal(b1-4)GlcNAc(b1-3)Gal(b1-3)GlcNAc
How it was run: as §1

[29] = molecular target: Neu5Ac(a2-6)Gal(b1-4)GlcNAc(b1-3)Gal(b1-4)GlcNAc
How it was run: as §1

[30] = molecular target: Neu5Ac(a2-6)Gal(b1-4)GlcNAc(b1-3)Gal(b1-4)GlcNAc(b1-3)Gal(b1-4)GlcNAc
How it was run: as §1

[31] = molecular target: Neu5Ac(a2-6)Gal(b1-4)GlcNAc(b1-3)Gal(b1-4)[Fuc(a1-3)]GlcNAc(b1-3)Gal(b1-4)[Fuc(a1-3)]GlcNAc
How it was run: as §1

[32] = molecular target: Neu5Ac(a2-6)Gal(b1-4)GlcNAc(b1-3)GalNAc
How it was run: as §1

[33] = molecular target: Neu5Ac(a2-6)Gal(b1-4)GlcNAc6S
How it was run: as §1

[34] = molecular target: Neu5Ac(a2-6)GalNAc
How it was run: as §1

[35] = molecular target: Neu5Ac(a2-6)GalNAc(b1-4)GlcNAc
How it was run: as §1

[36] = molecular target: Neu5Ac(a2-6)GlcNAc(b1-4)GlcNAc
How it was run: as §1

[37] = molecular target: Neu5Ac(a2-6)GlcNAc(b1-4)GlcNAc(b1-4)GlcNAc
How it was run: as §1

[38] = molecular target: Neu5Ac(a2-8)Neu5Ac
How it was run: as §1

[39] = molecular target: Neu5Ac(a2-8)Neu5Ac(a2-3)Gal(b1-4)Glc
How it was run: as §1

[40] = molecular target: Neu5Ac(a2-8)Neu5Ac(a2-3)[GalNAc(b1-4)]Gal(b1-4)Glc
How it was run: as §1

[41] = molecular target: Neu5Ac(a2-8)Neu5Ac(a2-8)Neu5Ac
How it was run: as §1

[42] = molecular target: Neu5Ac(a2-8)Neu5Ac(a2-8)Neu5Ac(a2-3)Gal(b1-4)Glc
How it was run: as §1

[43] = molecular target: Neu5Ac(a2-8)Neu5Ac(a2-8)Neu5Ac(a2-3)[GalNAc(b1-4)]Gal(b1-4)Glc
How it was run: as §1

[44] = molecular target: Neu5Ac(a2-8)Neu5Ac(a2-8)Neu5Ac(a2-8)Neu5Ac(a2-3)[GalNAc(b1-4)]Gal(b1-4)Glc
How it was run: as §1

[45] = molecular target: Neu5Ac(b2-6)Gal(b1-4)GlcNAc
How it was run: as §1

[46] = molecular target: Neu5Ac(b2-6)GalNAc
How it was run: as §1

[47] = molecular target: Neu5Ac9Ac(a2-3)Gal(b1-3)GlcNAc
How it was run: as §1

[48] = molecular target: Neu5Ac9Ac(a2-3)Gal(b1-4)GlcNAc
How it was run: as §1

[49] = molecular target: Neu5Ac9Ac(a2-6)Gal(b1-4)GlcNAc
How it was run: as §1

[50] = molecular target: Neu5Gc(a2-3)Gal(b1-3)GlcNAc
How it was run: as §1

[51] = molecular target: Neu5Gc(a2-3)Gal(b1-3)[Fuc(a1-4)]GlcNAc
How it was run: as §1

[52] = molecular target: Neu5Gc(a2-3)Gal(b1-4)Glc
How it was run: as §1

[53] = molecular target: Neu5Gc(a2-3)Gal(b1-4)GlcNAc
How it was run: as §1

[54] = molecular target: Neu5Gc(a2-3)Gal(b1-4)[Fuc(a1-3)]GlcNAc
How it was run: as §1

[55] = molecular target: Neu5Gc(a2-6)Gal(b1-4)GlcNAc
How it was run: as §1

[56] = molecular target: Neu5Gc(a2-6)GalNAc
How it was run: as §1

[57] = molecular target: Neu5Gc(b2-6)Gal(b1-4)GlcNAc
How it was run: as §1

B1: Spy 2007 (Streptococcus pyogenes), Q99XV3 (protein)
chain: MKKGFFLMAMVVSLVMIAGCDKSANPKQPTQGMSVVTSFYPMYAMTKEVSGDLNDVRMIQSGAGIHSFEPSVNDVAAIYDADLFVYHSHTLEAWARDLDPNLKKSKVDVFEASKPLTLDRVKGLEDMEVTQGIDPATLYDPHTWTDPVLAGEEAVNIAKELGRLDPKHKDSYTKNAKAFKKEAEQLTEEYTQKFKKVRSKTFVTQHTAFSYLAKRFGLKQLGISGISPEQEPSPRQLKEIQDFVKEYNVKTIFAEDNVNPKIAHAIAKSTGAKVKTLSPLEAAPSGNKTYLENLRANLEVLYQQLK
In the case of B1, the “glycan array binding signal (z-score)” value [1] is reported as 0.233, the “glycan array binding signal (z-score)” value [2] is reported as 1.49 and the “glycan array binding signal (z-score)” value [3] is reported as 0.479. For the same binder, the “glycan array binding signal (z-score)” value [4] was -0.893, the “glycan array binding signal (z-score)” value [5] was 0.456 and the “glycan array binding signal (z-score)” value [6] was 0.152. For the same binder, the “glycan array binding signal (z-score)” value [7] was 0.692, the “glycan array binding signal (z-score)” value [8] was 0.163 and the “glycan array binding signal (z-score)” value [9] was 0.007. The “glycan array binding signal (z-score)” value [10] was -0.385, the “glycan array binding signal (z-score)” value [11] was 0.05 and the “glycan array binding signal (z-score)” value [12] was 0.84. For the same binder, the “glycan array binding signal (z-score)” value [13] was 0.241, the “glycan array binding signal (z-score)” value [14] was 0.302 and the “glycan array binding signal (z-score)” value [15] was 0.439. For the same binder, the “glycan array binding signal (z-score)” value [16] was -0.237, the “glycan array binding signal (z-score)” value [17] was 0.272 and the “glycan array binding signal (z-score)” value [18] was -0.568. For the same binder, the “glycan array binding signal (z-score)” value [19] was -0.946, the “glycan array binding signal (z-score)” value [20] was -0.752 and the “glycan array binding signal (z-score)” value [21] was -0.352. For the same binder, the “glycan array binding signal (z-score)” value [22] was -0.459, the “glycan array binding signal (z-score)” value [23] was 1.43 and the “glycan array binding signal (z-score)” value [24] was -0.514. For the same binder, the “glycan array binding signal (z-score)” value [25] was 0.092, the “glycan array binding signal (z-score)” value [26] was -0.911 and the “glycan array binding signal (z-score)” value [27] was -0.718. The “glycan array binding signal (z-score)” value [28] was -0.35, the “glycan array binding signal (z-score)” value [29] was -0.537 and the “glycan array binding signal (z-score)” value [30] was -0.381. The “glycan array binding signal (z-score)” value [31] was 0.149, the “glycan array binding signal (z-score)” value [32] was 1.02 and the “glycan array binding signal (z-score)” value [33] was 0.968. The “glycan array binding signal (z-score)” value [34] was -0.679, the “glycan array binding signal (z-score)” value [35] was 0.257 and the “glycan array binding signal (z-score)” value [36] was -0.636. For the same binder, the “glycan array binding signal (z-score)” value [37] was -1.12, the “glycan array binding signal (z-score)” value [38] was -0.108 and the “glycan array binding signal (z-score)” value [39] was -0.172. For the same binder, the “glycan array binding signal (z-score)” value [40] was -0.393, the “glycan array binding signal (z-score)” value [41] was -0.433 and the “glycan array binding signal (z-score)” value [42] was 0.264. The “glycan array binding signal (z-score)” value [43] was -0.652, the “glycan array binding signal (z-score)” value [44] was -0.069 and the “glycan array binding signal (z-score)” value [45] was -0.452. For the same binder, the “glycan array binding signal (z-score)” value [46] was -0.52, the “glycan array binding signal (z-score)” value [47] was -0.298 and the “glycan array binding signal (z-score)” value [48] was 0.06. For the same binder, the “glycan array binding signal (z-score)” value [49] was -0.121, the “glycan array binding signal (z-score)” value [50] was -0.593 and the “glycan array binding signal (z-score)” value [51] was 0.276. The “glycan array binding signal (z-score)” value [52] was 0.389, the “glycan array binding signal (z-score)” value [53] was -0.723 and the “glycan array binding signal (z-score)” value [54] was 0.352. For the same binder, the “glycan array binding signal (z-score)” value [55] was -0.156, the “glycan array binding signal (z-score)” value [56] was -0.531 and the “glycan array binding signal (z-score)” value [57] was -0.518.
